At least one structure is not confirmed: it was looked up by name or label, or the drawing left a doubt.
Tested on: cytochrome c
Assay: Western blot of cytochrome c in the mitochondria-free cytosolic fraction
Assay type: cell-based, rat
Conditions: Chele 10 μM 1 h

COc1ccc2c(c[n+](C)c3c4cc5c(cc4ccc23)OCO5)c1OC [chelerythrine, Chelerythrine chloride]
release of cytochrome c to the cytosolic fraction: caused a release of cytochrome c

— patent US7160859B2, “Mst1 modulation of apoptosis in cardiac tissue and modulators of Mst1 for treatment and prevention of cardiac disease” (University of Medicine & Dentistry of New Jersey, priority 2002, dated 2007)
